According to paper PMC8901749:
No constants are given. Whether binding was seen depends on the method and setting. In cells and extracts the contact can be indirect. Some binding calls cover weakened binding; strength is not graded here.

Protein sequences, listed by entry. Tags and fused reporters are not part of them.
UniProt Q921E6: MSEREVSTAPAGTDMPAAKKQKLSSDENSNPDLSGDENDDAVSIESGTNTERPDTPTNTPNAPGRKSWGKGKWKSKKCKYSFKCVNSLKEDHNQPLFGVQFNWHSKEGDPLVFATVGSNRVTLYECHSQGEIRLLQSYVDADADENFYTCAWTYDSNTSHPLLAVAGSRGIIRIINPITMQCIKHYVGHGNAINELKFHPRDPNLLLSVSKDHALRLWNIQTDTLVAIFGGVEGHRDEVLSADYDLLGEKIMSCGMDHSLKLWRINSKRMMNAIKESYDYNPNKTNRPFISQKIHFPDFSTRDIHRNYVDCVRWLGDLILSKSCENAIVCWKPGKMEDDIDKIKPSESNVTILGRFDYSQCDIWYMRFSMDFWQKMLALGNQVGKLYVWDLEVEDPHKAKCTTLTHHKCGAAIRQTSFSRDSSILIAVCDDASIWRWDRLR
UniProt Q80U70: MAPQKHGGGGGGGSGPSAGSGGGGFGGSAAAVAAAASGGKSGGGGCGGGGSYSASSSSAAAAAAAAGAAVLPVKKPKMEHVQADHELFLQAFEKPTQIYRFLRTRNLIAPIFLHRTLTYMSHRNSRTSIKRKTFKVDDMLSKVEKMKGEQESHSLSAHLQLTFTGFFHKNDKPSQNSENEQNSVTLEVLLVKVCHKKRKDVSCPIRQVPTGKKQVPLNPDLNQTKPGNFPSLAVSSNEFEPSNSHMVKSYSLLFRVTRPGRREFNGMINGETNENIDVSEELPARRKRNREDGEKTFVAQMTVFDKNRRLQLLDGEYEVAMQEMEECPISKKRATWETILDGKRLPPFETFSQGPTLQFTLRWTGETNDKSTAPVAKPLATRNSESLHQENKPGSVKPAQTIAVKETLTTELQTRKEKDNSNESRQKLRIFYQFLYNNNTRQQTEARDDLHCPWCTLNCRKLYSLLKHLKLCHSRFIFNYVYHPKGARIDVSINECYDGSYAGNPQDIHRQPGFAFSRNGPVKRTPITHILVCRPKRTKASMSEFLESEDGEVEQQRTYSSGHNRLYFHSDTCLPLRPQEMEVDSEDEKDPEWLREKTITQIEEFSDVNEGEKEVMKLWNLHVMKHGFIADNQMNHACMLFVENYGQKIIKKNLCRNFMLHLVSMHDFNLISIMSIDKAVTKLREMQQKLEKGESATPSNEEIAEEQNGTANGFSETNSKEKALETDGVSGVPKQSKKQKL
UniProt Q61188: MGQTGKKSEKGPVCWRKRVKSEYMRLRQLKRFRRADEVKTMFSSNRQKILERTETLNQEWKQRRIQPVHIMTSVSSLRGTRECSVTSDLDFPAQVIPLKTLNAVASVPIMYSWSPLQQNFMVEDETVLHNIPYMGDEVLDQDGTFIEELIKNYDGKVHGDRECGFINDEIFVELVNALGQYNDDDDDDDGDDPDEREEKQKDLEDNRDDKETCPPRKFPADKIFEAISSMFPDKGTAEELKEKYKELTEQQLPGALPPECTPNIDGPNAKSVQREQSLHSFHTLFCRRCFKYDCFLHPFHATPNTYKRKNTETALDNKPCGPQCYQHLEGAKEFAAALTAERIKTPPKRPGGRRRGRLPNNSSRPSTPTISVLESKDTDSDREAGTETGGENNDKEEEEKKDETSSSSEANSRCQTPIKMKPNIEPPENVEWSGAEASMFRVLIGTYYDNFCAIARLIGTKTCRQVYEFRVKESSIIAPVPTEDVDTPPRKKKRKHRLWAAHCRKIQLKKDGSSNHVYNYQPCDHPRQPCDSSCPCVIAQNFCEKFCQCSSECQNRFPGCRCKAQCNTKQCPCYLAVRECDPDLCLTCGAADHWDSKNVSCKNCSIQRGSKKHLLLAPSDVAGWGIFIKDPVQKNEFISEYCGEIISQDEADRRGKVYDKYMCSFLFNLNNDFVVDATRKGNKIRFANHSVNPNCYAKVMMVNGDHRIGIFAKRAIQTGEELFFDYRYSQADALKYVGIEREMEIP

Biological target: EED (mouse (endogenous in SCIET27)) (UniProt Q921E6)
Test: co-IP; endogenous proteins in SCIET27 lysate (50 mM HEPES pH 7.6, 75 mM NaCl, 1 mM MgCl2, 1 mM EGTA, 1 mM EDTA, 1% NP-40); antibody to EED, EZH2 or α-tubulin or control IgG overnight at 4 °C, Dynabeads protein A; detection by western blot

binding | Substance
binds | Suz12 (from UniProt Q80U70 1-741)
binds | EZH2 (from UniProt Q61188 1-746)
